Primary screen of a compound library

Chains of the proteins cited; added tags and fusions are not shown. Residues count along the entry.
UniProt P9WNZ1, whole entry: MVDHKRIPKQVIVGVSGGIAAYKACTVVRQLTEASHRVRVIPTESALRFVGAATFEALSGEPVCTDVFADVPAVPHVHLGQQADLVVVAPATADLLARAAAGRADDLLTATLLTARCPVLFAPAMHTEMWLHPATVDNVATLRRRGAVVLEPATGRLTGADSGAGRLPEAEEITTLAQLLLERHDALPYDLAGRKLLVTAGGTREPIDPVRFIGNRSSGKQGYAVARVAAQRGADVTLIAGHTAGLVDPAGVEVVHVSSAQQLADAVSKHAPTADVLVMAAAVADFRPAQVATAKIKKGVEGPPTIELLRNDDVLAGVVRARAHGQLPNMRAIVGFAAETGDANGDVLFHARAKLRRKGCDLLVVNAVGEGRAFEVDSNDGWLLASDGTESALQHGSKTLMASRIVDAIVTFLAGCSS
UniProt A4I591, 1-473: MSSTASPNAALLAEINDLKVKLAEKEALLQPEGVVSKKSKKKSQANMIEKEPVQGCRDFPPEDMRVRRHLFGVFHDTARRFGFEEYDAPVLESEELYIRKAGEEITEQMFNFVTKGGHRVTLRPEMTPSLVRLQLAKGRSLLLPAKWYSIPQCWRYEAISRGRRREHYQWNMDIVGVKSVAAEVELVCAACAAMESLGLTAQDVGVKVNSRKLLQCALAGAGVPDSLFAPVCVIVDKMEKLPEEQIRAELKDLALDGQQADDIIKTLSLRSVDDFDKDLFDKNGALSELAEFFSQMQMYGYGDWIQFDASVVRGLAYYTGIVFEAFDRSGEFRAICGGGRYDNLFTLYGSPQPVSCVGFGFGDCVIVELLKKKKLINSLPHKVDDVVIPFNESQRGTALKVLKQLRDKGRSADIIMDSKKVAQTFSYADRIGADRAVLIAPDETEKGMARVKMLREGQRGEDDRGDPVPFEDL

Source: ChEMBL document CHEMBL3988442, “University of Dundee, Small-Polar-MMV Screening Library” (2021).

CoaBC: 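Enzyme assay of CoaBC with a phosphate dye (Biomol Green) read at 650 nm. Target: Coenzyme A biosynthesis protein CoaBC, Mycobacterium tuberculosis (UniProt P9WNZ1). Compounds at 30 µM. Direction is inferred from only a few compounds that gave an IC50; most scored high, so higher reads as stronger inhibition. Most strong results did not repeat in a second test. Of about 67,000 compounds tested this way, about 40 (0.06%) reached 50% or more in at least one test.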
LiHisRS: 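Enzyme assay of histidyl-tRNA synthetase; the read-out is not stated. Target: Histidine-tRNA ligase, Leishmania infantum (UniProt A4I591). Concentration: 30 µM. The record gives no direction; compounds that gave an IC50 in retests scored well above the rest, so higher reads as stronger inhibition. The assay is labelled LdHisRS but filed under L. infantum. Size under these conditions: about 69,000 compounds, about 410 of them at 50% or above in at least one test.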
Leishmania in macrophages: 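Cell assay of Leishmania donovani living inside macrophages; the read-out is not stated. Concentration: 30 µM. The record gives no direction; compounds that gave an IC50 in retests scored well above the rest, so higher reads as stronger inhibition. Size under these conditions: about 69,000 compounds, about 1,000 of them at 50% or above in at least one test.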

Each number is a percent effect as filed. The record does not define 0% and 100%; most values in the screen are far below 50% and negative numbers occur (in some assays of this library far below -100). The compounds are a random part of those screened. Two or more numbers in one place are separate tests of the same structure; such repeats can differ widely. A dash means the value is not listed here; it may have been measured.

Compound,CoaBC,LiHisRS,Leishmania in macrophages
COC(=O)c1sccc1S(=O)(=O)N1CCC(Oc2cccc(C)n2)CC1,4.619,6.612,24.22
Cc1ccc(CN2CC[C@H]3[C@H]2CCN3S(=O)(=O)C2CC2)s1,-0.6148,12,-
Nc1cc(N2CCCC(COc3ccc(F)cc3)C2)nc(N)n1 (stereo not drawn),-49.51,24.1,-15.02
COc1cc2c(cc1CN1CCc3sccc3C1C)OCO2 (stereo not drawn),-3.558,5.674,31.91
Cc1ccc(-c2cnc(CCC(=O)NCCN3CCOCC3)o2)cc1C,4.37,8.264,19.3
CC(C)[C@H](Nc1nc(C2CCCC2)nc2c1cnn2C)C(N)=O,0.4963,12.77,-12.25
CCc1nc2c(s1)C(N(C)C(=O)c1cc[nH]n1)CCC2 (stereo not drawn),4.669,0.9009,5.761
Cc1cccc(CN2CCCn3c(nnc3CN3CCCC3=O)C2)n1.O=C(O)C(F)(F)F,-,-,-8.397
COC(=O)NCc1cc2n(n1)CCCN(C(C)=O)C2,0,22.86,2.524
[H][C@@]12CS(=O)(=O)C[C@]1([H])N(C(=O)c1[nH]c3ccccc3c1CC)CCN2C,-,-,-15.51
O=C(Cn1cccn1)N(CCO)CCSc1ccc(Cl)cc1,2.043,0,3.524
O=S(=O)(c1ccc(F)cc1)N1CCOC[C@H](Oc2cnccn2)C1,13.95,10.81,-6.969
Cc1nc(-c2cccnc2)ncc1C(=O)N1CCCCC(N)C1 (stereo not drawn),0.7634,17.95,-11.78 & 47.42
Cc1nccc(CN2CCC(c3nnsc3S(C)(=O)=O)CC2)n1,4.167,8.333,34.4
CCC(=O)Nc1ccc2c(ccn2CC(=O)N(CC)CC)c1,3.929,23.21,25.54
CN(CCc1ccccc1)Cc1nc2c(cnn2C)c(=O)[nH]1,7.329,10.53,2.394
CC(OCC1CC1)C(=O)Nc1cccc(C(=O)Nc2ccncc2)c1 (stereo not drawn),4.784,3.333,17.88
Cc1noc2nc(C3CCN(CC4=CCCOC4)CC3)cc(C(F)F)c12.Cl,-,-,19.09
Cc1nc(C)n(CC2CN(Cc3noc(C4CC4)n3)CCO2)n1 (stereo not drawn),2.045,8.929,-6.202
CNC(=O)c1ccc(C(=O)N2CCCC(n3ccnc3)C2)cn1 (stereo not drawn),0.6452,3.478,20.81
CCn1ncc2c1C(COC)CN(Cc1cccnc1)C2.O=C(O)C(F)(F)F.O=C(O)C(F)(F)F.O=C(O)C(F)(F)F (stereo not drawn),-,-,-12.15
COCCCNC(=O)CN(C)C(=O)c1ccccc1O,8.344,18.35,22.72
NC(=O)c1cc(C2CCCN(CCc3ccccn3)C2)n[nH]1 (stereo not drawn),0.5181,4.255,28
CN(C)[C@@H]1CN(Cc2cnn(C)c2)[C@@H]2COC[C@H]12,9.98,18.42,-
Cc1nccc(C2CCCCN2Cc2ccc(F)cc2)n1 (stereo not drawn),8.035,8.966,1.861
O=C(c1n[nH]c2c1CCC2)N1CCCC1c1nc(-c2ccccn2)no1 (stereo not drawn),5.622,22.39,0.6667
NC(=O)N1CCC2(CC1)CC(=O)N(CC1CCCO1)c1ccccc12 (stereo not drawn),-0.9009,5.769,8.748
[H][C@@]12C[C@@H](Oc3ccccc3)C[C@]1([H])CN(C(=O)c1cnc(N(C)C)nc1)C2,-,-,-0.1339
Cc1nonc1CC(=O)N1CCC2(CCCN(C3CCOCC3)C2=O)C1 (stereo not drawn),11.15,15.96,40.04
CCCn1nnnc1CN(c1ccc(N2CCOCC2)cc1)C(C)C,-4.628,-28.21,-18.06
Cc1cc(NS(=O)(=O)c2c[nH]c3ncccc23)no1,-7.631,19.4,15.15
CC(C#N)CSc1ccccc1NCC(=O)Nc1ccc(F)cc1 (stereo not drawn),-6.61,5.769,4.331
C1CC(NCC2CC2)CN(Cc2noc(C3CC3)n2)C1 (stereo not drawn),-0.2296,6.122,-3.535
CCOc1ccc(Cl)c(C(=O)NC(C(N)=O)c2ccccc2)n1 (stereo not drawn),4.808,17.81,28.97
Cc1ccsc1[C@@H]1CCN(C(=O)CCC(=O)c2ccccc2)C[C@H]1O,-1.794,23.29,-2.602
Cc1ccc(=O)n(CC2(O)CCN(Cc3cccs3)CC2)n1,1.225,7.292,-2.907
CS(=O)(=O)NC[C@@H]1OC[C@H]2CN(C(=O)c3ccccc3)CC[C@H]21,-0.3257,11.43,-
O=C(CCc1ccc(OC(F)(F)F)cc1)N1CCCS1(=O)=O,7.143,8.036,-2.727
CC(C)CCn1cc(C(C(=O)O)N2CCC(N3CCSCC3)CC2)cn1 (stereo not drawn),7.16,0,-15.43
Cc1cc(C)n(CC2CCCN2C(=O)CCCc2ccccn2)n1 (stereo not drawn),-0.5319,13.6,-20.4
CC(C)OCCOCc1cccc(NC(=O)N2CCCC(O)C2)c1 (stereo not drawn),0.5894,2.632,-0.04951
Cc1ccc(S(=O)(=O)N2CCC(O)(CN(C)C)C2)cc1 (stereo not drawn),4.843,20.62,11.57 & 12.73
Cc1nc(C2CCCN2C(=O)c2csc3c2CCCC3)no1 (stereo not drawn),5.357,7.273,3.034
Cc1ccc(OCc2ccc(C(=O)O)s2)cc1C,2.079,0,47.72
CSCC(=O)N1C[C@@H](C)[C@](O)(C(C)C)C1,3.704,1.064,-21.09
Cc1nc(CN2CCC2(CCCc2ccccn2)C(=O)N(C)C)co1 (stereo not drawn),-3.398,7.143,21.03
Cc1cc(C2CCC2)nc(N(C)Cc2cnccn2)n1,8.132,0,-0.5715
CC(C)c1sc(Cl)nc1C(=O)NCc1ccncc1,6.444,22.92,-6.375
O=C(NC1CC1)c1cc(NC(=O)N2CCCC(O)C2)ccc1Cl (stereo not drawn),-1.935,9.524,-6.287
CC1CC(=O)c2cc(C(=O)N3CCc4ccccc4C3)c(=O)[nH]c2C1 (stereo not drawn),3.671,22.5,21.52
Cc1oncc1C(=O)N1CC[C@H]2[C@H](C[C@@H](CN(C)C)N2CC2CC2)C1,-2.061,13.46,-
[H][C@@]12CCCO[C@]1([H])[C@H](OCc1cccnc1)CN2C(=O)c1ccnnc1,-,-,4.969
COc1ccc(CNCC(C)Oc2ccccn2)cc1Br (stereo not drawn),10.36,15.53,-
CCNC(=O)c1ccnc(N2CCCC(COc3ccccc3C)C2)c1 (stereo not drawn),4.866,15.56,33.05
Cc1csc(N2CCN(C(=O)CCNc3ncccn3)CC2)n1,2.728,40.48,13.18
COCC(NC(=O)c1cc[nH]n1)c1cccc(C(F)(F)F)c1 (stereo not drawn),8.316,17.31,5.119
Cc1cc(NC(=O)CN2CCCC(Cn3cncn3)C2)on1 (stereo not drawn),-,34.29,21.25
Clc1cccc(C(CNCc2ccccn2)N2CCOCC2)c1 (stereo not drawn),-11.68,-0.885,10.09
c1cnc2nc(N3CCc4c(ncn4C4CC4)C3)ccc2n1,8.058,16.44,-17.25
[H][C@]12CCN(Cc3cnc(-c4cccc(OC)c4)s3)C[C@]([H])(CC1)N2,-,-,38.06
CS(=O)(=O)N1CCCC(c2cccc(-c3ccccc3F)n2)C1 (stereo not drawn),3.39,11.19,9.648
O=C(Nc1ccccc1OC1CCOC1)c1[nH]nc2c1CCCC2 (stereo not drawn),-3.204,12.68,5.55
CCc1nccn1C1CCCN(C(=O)c2ccnc(C)n2)C1 (stereo not drawn),7.789,5.66,2.133
Cn1ccnc1CN1CCC(CCC(=O)Nc2ccccc2Cl)CC1,-14.85,15.07,-26.29
CC(SCC(=O)N(C)CC(=O)NC1CC1)c1ccccc1F (stereo not drawn),-1.141,8.861,-20.58
Cl.[H][C@@]12OCCC[C@]1([H])NC[C@H]2NC(=O)c1cnccn1,-,-,34.3
COc1cnc(N2CC(N3CCOCC3)C2)nc1-c1ccnn1C,17.99 & 87.24,92.16,-0.4208
O=C(COc1ccccc1NCc1ccoc1)N1CCOCC1,4.962,9.756,0.3152

For reference, 9 entries once more:

| Compound | CoaBC | LiHisRS | Leishmania in macrophages |
|---|---|---|---|
| `O=C(NC1CC1)c1cc(NC(=O)N2CCCC(O)C2)ccc1Cl` (stereo not drawn) | -1.935 | 9.524 | -6.287 |
| `O=C(CCc1ccc(OC(F)(F)F)cc1)N1CCCS1(=O)=O` | 7.143 | 8.036 | -2.727 |
| `Cc1nc(C2CCCN2C(=O)c2csc3c2CCCC3)no1` (stereo not drawn) | 5.357 | 7.273 | 3.034 |
| `CCOc1ccc(Cl)c(C(=O)NC(C(N)=O)c2ccccc2)n1` (stereo not drawn) | 4.808 | 17.81 | 28.97 |
| `Cc1nc(-c2cccnc2)ncc1C(=O)N1CCCCC(N)C1` (stereo not drawn) | 0.7634 | 17.95 | -11.78 & 47.42 |
| `Cc1nc(C)n(CC2CN(Cc3noc(C4CC4)n3)CCO2)n1` (stereo not drawn) | 2.045 | 8.929 | -6.202 |
| `CCC(=O)Nc1ccc2c(ccn2CC(=O)N(CC)CC)c1` | 3.929 | 23.21 | 25.54 |
| `Cn1ccnc1CN1CCC(CCC(=O)Nc2ccccc2Cl)CC1` | -14.85 | 15.07 | -26.29 |
| `Cc1ccsc1[C@@H]1CCN(C(=O)CCC(=O)c2ccccc2)C[C@H]1O` | -1.794 | 23.29 | -2.602 |